Test results taken from PMC4109846.
These are yes or no findings as the source states them, for the method shown. For part of these data: In cells and extracts the contact can be indirect. Some entries that bind do so weakly or less than the wild type. Tags and fused reporters may be left off the sequences shown. Values belong to the binder of their own block, whether it stands above or below them.

Legend:
[1] = target: T1, ARID1 (AT-Rich Interacting Domain-containing protein 1), full length cDNA in pGBT9 (Arabidopsis thaliana) (UniProt Q84JT7); assay: two-hybrid; yeast strain AH109; ARID1 or ARID1-C in pGBT9, HDA8 in pGAD10; medium lacking leucine, tryptophan and histidine with 10 mM 3-amino-1,2,4-triazole; 2-4 d at 28°C
T1 sequence: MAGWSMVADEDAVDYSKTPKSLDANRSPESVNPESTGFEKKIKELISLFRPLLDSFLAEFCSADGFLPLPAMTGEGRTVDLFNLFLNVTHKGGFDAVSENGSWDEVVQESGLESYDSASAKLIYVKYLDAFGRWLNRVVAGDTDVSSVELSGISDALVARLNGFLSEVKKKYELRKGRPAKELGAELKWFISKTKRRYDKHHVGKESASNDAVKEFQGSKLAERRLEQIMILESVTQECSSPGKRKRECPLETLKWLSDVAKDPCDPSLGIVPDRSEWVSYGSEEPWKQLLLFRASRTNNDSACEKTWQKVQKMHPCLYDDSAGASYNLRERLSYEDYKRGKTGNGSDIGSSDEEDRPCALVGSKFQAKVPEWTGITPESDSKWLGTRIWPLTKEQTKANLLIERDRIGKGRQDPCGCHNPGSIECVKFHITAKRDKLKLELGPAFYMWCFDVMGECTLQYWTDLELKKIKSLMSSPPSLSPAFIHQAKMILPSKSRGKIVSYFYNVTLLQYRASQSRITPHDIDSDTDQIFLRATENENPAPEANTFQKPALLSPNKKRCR

[2] = target: T2, ARID1-Myc (Arabidopsis thaliana) (UniProt Q84JT7); assay: co-IP; inflorescence lysate of ARID1-Myc; HDA8-YFP doubly transgenic plants; Myc antibodies on protein G agarose; 50 mM Tris-HCl pH 7.5, 150 mM NaCl, 0.2% NP-40, 2 mM DTT, 10% glycerol; 2 h at 4°C; anti-Myc and anti-GFP immunoblot
T2 sequence: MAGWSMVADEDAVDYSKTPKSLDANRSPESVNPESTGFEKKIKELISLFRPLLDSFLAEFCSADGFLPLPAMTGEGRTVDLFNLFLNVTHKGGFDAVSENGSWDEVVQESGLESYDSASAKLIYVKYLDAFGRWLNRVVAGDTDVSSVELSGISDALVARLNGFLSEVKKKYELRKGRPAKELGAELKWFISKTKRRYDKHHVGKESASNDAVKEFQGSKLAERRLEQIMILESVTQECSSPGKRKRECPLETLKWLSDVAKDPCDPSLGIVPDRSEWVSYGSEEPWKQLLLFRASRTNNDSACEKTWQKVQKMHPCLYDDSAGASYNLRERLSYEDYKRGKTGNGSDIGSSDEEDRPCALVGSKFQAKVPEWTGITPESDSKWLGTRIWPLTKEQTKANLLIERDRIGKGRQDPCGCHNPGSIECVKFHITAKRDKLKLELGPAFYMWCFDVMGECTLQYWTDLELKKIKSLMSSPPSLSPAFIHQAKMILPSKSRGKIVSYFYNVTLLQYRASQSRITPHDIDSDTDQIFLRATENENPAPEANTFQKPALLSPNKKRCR

[3] = target: T3, GST-HDA8 (full length HDA8 fused to GST) (Arabidopsis thaliana) (UniProt Q94EJ2); assay: pull-down; GST or GST-HDA8 on glutathione Sepharose 4B beads (30 µg total protein); 600 µl protein extract from inflorescences of ARID1-GFP plants; 2 h at 4°C; washed 5 times with IP lysis buffer; anti-GFP immunoblot; only the target purified
T3 sequence: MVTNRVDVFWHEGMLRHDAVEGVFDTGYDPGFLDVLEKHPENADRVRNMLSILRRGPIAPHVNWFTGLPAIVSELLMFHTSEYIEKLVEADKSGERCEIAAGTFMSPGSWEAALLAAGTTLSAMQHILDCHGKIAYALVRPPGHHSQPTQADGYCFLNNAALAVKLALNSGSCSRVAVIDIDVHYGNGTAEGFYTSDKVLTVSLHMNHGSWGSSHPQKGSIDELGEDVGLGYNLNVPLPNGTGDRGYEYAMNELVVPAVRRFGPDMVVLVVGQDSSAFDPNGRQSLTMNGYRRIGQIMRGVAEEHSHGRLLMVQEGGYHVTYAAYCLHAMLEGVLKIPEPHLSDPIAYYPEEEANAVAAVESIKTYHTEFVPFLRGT

- binding [1]: binds
B1: HDA8 (Histone Deacetylase 8), full length cDNA in pGAD10 (enzyme, UniProt Q94EJ2 1-377)
chain: MVTNRVDVFWHEGMLRHDAVEGVFDTGYDPGFLDVLEKHPENADRVRNMLSILRRGPIAPHVNWFTGLPAIVSELLMFHTSEYIEKLVEADKSGERCEIAAGTFMSPGSWEAALLAAGTTLSAMQHILDCHGKIAYALVRPPGHHSQPTQADGYCFLNNAALAVKLALNSGSCSRVAVIDIDVHYGNGTAEGFYTSDKVLTVSLHMNHGSWGSSHPQKGSIDELGEDVGLGYNLNVPLPNGTGDRGYEYAMNELVVPAVRRFGPDMVVLVVGQDSSAFDPNGRQSLTMNGYRRIGQIMRGVAEEHSHGRLLMVQEGGYHVTYAAYCLHAMLEGVLKIPEPHLSDPIAYYPEEEANAVAAVESIKTYHTEFVPFLRGT

- binding [2]: binds
B2: HDA8-YFP (enzyme, UniProt Q94EJ2 1-377)
chain: MVTNRVDVFWHEGMLRHDAVEGVFDTGYDPGFLDVLEKHPENADRVRNMLSILRRGPIAPHVNWFTGLPAIVSELLMFHTSEYIEKLVEADKSGERCEIAAGTFMSPGSWEAALLAAGTTLSAMQHILDCHGKIAYALVRPPGHHSQPTQADGYCFLNNAALAVKLALNSGSCSRVAVIDIDVHYGNGTAEGFYTSDKVLTVSLHMNHGSWGSSHPQKGSIDELGEDVGLGYNLNVPLPNGTGDRGYEYAMNELVVPAVRRFGPDMVVLVVGQDSSAFDPNGRQSLTMNGYRRIGQIMRGVAEEHSHGRLLMVQEGGYHVTYAAYCLHAMLEGVLKIPEPHLSDPIAYYPEEEANAVAAVESIKTYHTEFVPFLRGT

- binding [3]: binds
B3: ARID1-GFP (protein, UniProt Q84JT7 1-562)
chain: MAGWSMVADEDAVDYSKTPKSLDANRSPESVNPESTGFEKKIKELISLFRPLLDSFLAEFCSADGFLPLPAMTGEGRTVDLFNLFLNVTHKGGFDAVSENGSWDEVVQESGLESYDSASAKLIYVKYLDAFGRWLNRVVAGDTDVSSVELSGISDALVARLNGFLSEVKKKYELRKGRPAKELGAELKWFISKTKRRYDKHHVGKESASNDAVKEFQGSKLAERRLEQIMILESVTQECSSPGKRKRECPLETLKWLSDVAKDPCDPSLGIVPDRSEWVSYGSEEPWKQLLLFRASRTNNDSACEKTWQKVQKMHPCLYDDSAGASYNLRERLSYEDYKRGKTGNGSDIGSSDEEDRPCALVGSKFQAKVPEWTGITPESDSKWLGTRIWPLTKEQTKANLLIERDRIGKGRQDPCGCHNPGSIECVKFHITAKRDKLKLELGPAFYMWCFDVMGECTLQYWTDLELKKIKSLMSSPPSLSPAFIHQAKMILPSKSRGKIVSYFYNVTLLQYRASQSRITPHDIDSDTDQIFLRATENENPAPEANTFQKPALLSPNKKRCR
